Data as given in US20210380703A1.
Changes are numbered by the printed parent chain. These are yes or no findings as the source states them, for the method shown. Where a sequence is shown, tags or fusion partners need not be part of it.

T1: His-tagged Mouse ACVR2B (mouse) (UniProt P27040)
T1 sequence (looked up): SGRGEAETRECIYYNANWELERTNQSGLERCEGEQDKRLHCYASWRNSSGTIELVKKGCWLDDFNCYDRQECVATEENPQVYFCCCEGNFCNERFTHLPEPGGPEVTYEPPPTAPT

T2: His-tagged Human ACVR2B (human) (UniProt Q13705)
T2 sequence (looked up): T1 sequence (looked up) with P101A

B1: 373_G05 (antibody, V domains shown)
VH: EVQLLESGGGLVQPGGSLRLSCAASGFTFSSYSMNWVRQAPGKGLEWVAGINYNGGYTSYADSVKGRFTISRDNSKNTLYLQMNSLRAEDTAVYYCARSATWHDTHLDYWGQGTLVTVSS
VL: DIQMTQSPSSLSASVGDRVTITCRASQSILSYLNWYQQKPGKAPKLLIYAATSLASGVPSRFSGSGSGTDFTLTISSLQPEDFATYYCQQSYELPLTFGGGTKVEIK
B2: 372_D04 (antibody, V domains shown)
VH: B1 VH with G50N, G55S, S59G
VL: B1 VL with S31T, A55H, E93D
B3: 369_A10 (antibody, V domains shown)
VH: B1 VH with S30D, G55S, S59G
VL: B1 VL with L54R
B4: 373_E06 (antibody, V domains shown)
VH: B1 VH with S30D, G55S, T58K
VL: B1 VL with S31R, A55H, E93D, L94N
B5: 374_C05 (antibody, V domains shown)
VH: B1 VH with S30D, G55S, T58K
VL: B1 VL with L30I, S31R, L47V, L54R, E93D, L94N
B6: 375_G07 (antibody, V domains shown)
VH: B1 VH with S30D, G55S
VL: B1 VL with L47V, E93D
B7: 367_G07 (antibody, V domains shown)
VH: B1 VH with S30D, G50N, S59G
VL: B1 VL with S31T, L33V, L54R, E93D, L94N
B8: 373_B08 (antibody, V domains shown)
VH: B1 VH with S30D, G50N, G55S, T58K, S59G
VL: B1 VL with S31T, L47V, L94N
B9: 373_B11 (antibody, V domains shown)
VH: B1 VH with G50N, G55S, T58K, S59G
VL: B1 VL with L54R, E93D, L94N
B10: 376_B06 (antibody, V domains shown)
VH: B1 VH with G55S, T58K, S59G
VL: B1 VL with S31T, L54R, E93D
B11: 370_E07 (antibody, V domains shown)
VH: B1 VH with S30D, G50N, S59G
VL: B1 VL with S31T, L54R, E93D, L94N

Target: T1, His-tagged Mouse ACVR2B (mouse)
Assay: ELISA, coated His-tagged mouse ACVR2B, 10-point

| Binder | binding |
| --- | --- |
| B1 | no binding (tested: 1 µM (top of the dilution series)) |
| B2 | no binding (tested: 1 µM (top of the dilution series)) |
| B3 | no binding (tested: 1 µM (top of the dilution series)) |
| B4 | no binding (tested: 1 µM (top of the dilution series)) |
| B5 | no binding (tested: 1 µM (top of the dilution series)) |
| B6 | no binding (tested: 1 µM (top of the dilution series)) |
| B7 | no binding (tested: 1 µM (top of the dilution series)) |
| B8 | no binding (tested: 1 µM (top of the dilution series)) |
| B9 | no binding (tested: 1 µM (top of the dilution series)) |
| B10 | no binding (tested: 1 µM (top of the dilution series)) |
| B11 | no binding (tested: 1 µM (top of the dilution series)) |

Target: T2, His-tagged Human ACVR2B (human)
Assay: ELISA, coated His-tagged human ACVR2B, 10-point

| Binder | binding |
| --- | --- |
| B1 | no binding (tested: 1 µM (top of the dilution series)) |
| B2 | no binding (tested: 1 µM (top of the dilution series)) |
| B3 | no binding (tested: 1 µM (top of the dilution series)) |
| B4 | no binding (tested: 1 µM (top of the dilution series)) |
| B5 | no binding (tested: 1 µM (top of the dilution series)) |
| B6 | no binding (tested: 1 µM (top of the dilution series)) |
| B7 | no binding (tested: 1 µM (top of the dilution series)) |
| B8 | no binding (tested: 1 µM (top of the dilution series)) |
| B9 | no binding (tested: 1 µM (top of the dilution series)) |
| B10 | no binding (tested: 1 µM (top of the dilution series)) |
| B11 | no binding (tested: 1 µM (top of the dilution series)) |
